# Assay results taken from the supplement of paper PMC12823440, “Inhibitors supercharge kinase turnover through native proteolytic circuits” (Nature, 2025).
# Protein sequences, listed by entry. Tags and fused reporters are not part of them. Lines headed by an entry give the natural chain unless they say otherwise; changes in a name come on top.
# UniProt Q12851: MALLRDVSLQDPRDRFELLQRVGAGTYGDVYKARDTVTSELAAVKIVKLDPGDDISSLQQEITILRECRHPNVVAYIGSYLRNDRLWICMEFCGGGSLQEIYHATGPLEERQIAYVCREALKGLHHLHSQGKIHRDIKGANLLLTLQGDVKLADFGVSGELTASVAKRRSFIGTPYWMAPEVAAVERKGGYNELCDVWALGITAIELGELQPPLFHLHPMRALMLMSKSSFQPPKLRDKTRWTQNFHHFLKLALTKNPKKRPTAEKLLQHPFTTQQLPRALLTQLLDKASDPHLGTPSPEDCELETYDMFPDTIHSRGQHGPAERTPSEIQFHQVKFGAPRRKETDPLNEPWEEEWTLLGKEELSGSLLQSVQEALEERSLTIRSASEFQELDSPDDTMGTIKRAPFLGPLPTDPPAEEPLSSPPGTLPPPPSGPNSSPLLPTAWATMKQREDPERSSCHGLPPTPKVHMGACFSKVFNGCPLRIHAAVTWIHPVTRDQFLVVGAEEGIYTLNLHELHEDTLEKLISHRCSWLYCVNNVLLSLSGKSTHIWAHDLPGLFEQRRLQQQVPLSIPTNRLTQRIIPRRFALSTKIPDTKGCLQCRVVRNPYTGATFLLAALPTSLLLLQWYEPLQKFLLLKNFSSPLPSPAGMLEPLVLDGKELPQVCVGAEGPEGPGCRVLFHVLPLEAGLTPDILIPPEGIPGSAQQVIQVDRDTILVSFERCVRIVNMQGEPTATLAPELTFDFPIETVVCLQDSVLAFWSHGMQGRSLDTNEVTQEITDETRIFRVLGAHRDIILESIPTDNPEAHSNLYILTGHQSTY
# The list shows a part of the results. Hit calls seldom repeat between salt and free forms of one compound.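 In K562 cells expressing nanoluciferase-fused kinases, luminescence was recorded at 4 h intervals between 2 and 18 h, normalized as percent of control with DMSO at 100% and a positive control at 0%. A significant (2 sigma) signal drop marks a time point as decreased. The authors' rule for a hit is not shown and takes in more than the number of time points.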
# Target: MAP4K2 (UniProt Q12851)
# Experiment: number of time points (of 5) at which kinase-Nluc abundance scored as decreased, DMSO-normalised (count); higher = more persistent destabilization
# Settings: K562; 2-18 h
row,Compound,number of time points
1,O=Nc1c(-c2c(O)[nH]c3cc(Br)ccc23)[nH]c2ccccc12 [GSK 3 Inhibitor IX] (2.5 µM),0
2,Cn1c2cc([S+](C)[O-])sc2c2cnn(Cc3cccc(N)c3)c(=O)c21 (stereo not drawn) (2.5 µM),0
3,Cc1cc(-n2c(=O)ccc3c[nH]c4nccc-4c32)ccc1F (10 µM),0
4,CCCn1/c(=N/C(=O)c2cccc(C(N)=O)c2)[nH]c2ccccc21 [Takinib] (10 µM),0
5,CO[C@H]1C[C@@H]2CC[C@@H](C)[C@@](O)(O2)C(=O)C(=O)N2CCCC[C@H]2C(=O)O[C@H]([C@H](C)C[C@@H]2CC[C@@H](OCCO)[C@H](OC)C2)CC(=O)[C@H](C)/C=C(\C)[C@@H](O)[C@@H](OC)C(=O)[C@H](C)C[C@H](C)/C=C/C=C/C=C/1C [Everolimus] (10 µM),0
6,Cc1cccc(-c2[nH]ncc2-c2ccnc3ccccc23)n1 (10 µM),0
7,CC1(N)CCN(c2cccnc2NC(=O)c2nc(-c3ncccc3C(F)(F)F)cnc2N)CC1 [Darovasertib] (10 µM),0
8,COc1cc2c(cc1Nc1ncc(C(N)=O)c(Nc3c(F)cccc3C(F)(F)F)n1)CN(C)CC2 (2.5 µM),0
9,COc1cc2ncnc(Nc3ccc(O)c(Br)c3)c2cc1OC (10 µM),0
10,Nc1nc2c(nc(Br)n2[C@@H]2O[C@@H]3COP(=O)(O)O[C@H]3[C@H]2O)c(=O)[nH]1 [8-Bromo-cGMP (sodium)] (10 µM),0
11,O=c1c2c([nH]n1-c1nc3ccccc3s1)CCCC2 (10 µM),0
12,COC(=O)Nc1ccc(-c2nc(N3CCOCC3)c3cnn(C4CCN(Cc5cccnc5)CC4)c3n2)cc1 (10 µM),0
13,N[C@@H]1CCCN(c2c(/C=C3\SC(=O)NC3=O)cccc2-c2ccccc2)C1 (10 µM),0
14,Nc1nc(N)c2nc(-c3cccc(O)c3)c(-c3cccc(O)c3)nc2n1 (10 µM),0
15,Cn1ncc(NC(=O)c2nc(-c3c(F)cccc3F)sc2N)c1N1CC[C@@H](N)[C@H](F)CC1 (10 µM),0
16,C=C1C(=O)[C@@]23[C@H](O)C[C@@H]4C(C)(C)C(=O)CC[C@@]4(C)[C@@H]2CC[C@@H]1[C@H]3O [Glaucocalyxin A] (2.5 µM),0
17,O=C(NCCO)c1cc(C(=O)NCCO)cc(C(=O)NCCO)c1 (10 µM),0

row,Compound,number of time points
1,CCC(=O)Nc1cccc(Oc2nc(Nc3ccc(N4CCN(C)CC4)cc3OC)ncc2Cl)c1 (10 µM),0
2,Cc1nn(C)cc1-c1nc2c(N3CCN(Cc4ccc(Cl)cc4)CC3)c(Cl)cnc2[nH]1 (10 µM),0
3,CC(C)Oc1ccc(F)c(-c2cnc(N)c(C(=O)Nc3cnccc3N3CCC[C@@H](C(=O)O)C3)n2)c1 (2 µM),0
4,Nc1ncc(C(=O)NC2CN(C(=O)C3CC3)C2)c2ccc(-c3cccc(F)c3)nc12 (2 µM),0
5,O=C(ON=C1c2ccccc2-c2nc3ccccc3nc21)c1ccco1 (2.5 µM),0
6,CC(C)=CC[C@@H](O)C1=CC(=O)c2c(O)ccc(O)c2C1=O [Shikonin] (10 µM),0
7,COC(=O)Nc1ccc(-c2nc(N3CCOCC3)c3cnn(C4CCN(C(=O)OC)CC4)c3n2)cc1 (10 µM),0
8,CNC(=O)c1ccc2c(c1)ncn2-c1ccc(CC(=O)OC(C)(C)C)cc1 (10 µM),0
9,O=C1CC[C@H](NC(=O)Cc2ccccc2)C(=O)N1 [Antineoplaston A10] (10 µM),0
10,COCCOCCc1c(C)c2cc(OC)c(O)c(C=O)c2oc1=O (10 µM),0
11,Cc1ccc(C(=O)NC2CC2)cc1-n1ncc(C(=O)c2cccc(C#N)c2)c1N [Acumapimod] (10 µM),0
12,O=C(NCCN1CCOCC1)Nc1nc2ccc(Sc3nnc4ccc(-c5ccc(F)cc5)nn34)cc2s1 (10 µM),0
13,COc1cc(F)ccc1-c1ncnc(Nc2cccc(C[S@](C)(=N)=O)c2)n1 [Atuveciclib] (2.5 µM),0
14,CCn1c(-c2nonc2N)nc2c(C#CC(C)(C)O)ncc(OC[C@H]3CCCNC3)c21 (10 µM),0
15,O=c1[nH]ccc2nc(-c3ccc(CN4CCC(c5nc(-c6ccccn6)n[nH]5)CC4)cc3)c(-c3ccccc3)cc12 (10 µM),0
16,COCCOc1ccc2c(c1)ncn2-c1ccc2cccc(N3CCC(N)CC3)c2n1 (10 µM),0

# A portion of the results above, for reference:
row,Compound,number of time points
9,O=C1CC[C@H](NC(=O)Cc2ccccc2)C(=O)N1 [Antineoplaston A10] (10 µM),0
10,COCCOCCc1c(C)c2cc(OC)c(O)c(C=O)c2oc1=O (10 µM),0
